The test system of the experiment is P388 leukemia ip, CD2F1 mice, survival T/C. Briefly: NCI In Vivo Anticancer Drug Screen. Data for tumor model P388 Leukemia (intraperitoneal) in CD2F1 (CDF1) mice. The settings on record: T/C endpoint: median survival time, higher T/C = longer survival.
The mark [1] stands for this setting: dose: 200.0 mg/kg/injection, schedule: Q01DX009 (ip), vehicle: saline with Tween-80.
Setting [2] is: dose: 200.0 mg/kg/injection, schedule: Q01DX005 (ip), vehicle: saline with Tween-80.
[3] abbreviates: dose: 100.0 mg/kg/injection, schedule: Q01DX009 (ip), vehicle: saline.
Setting [4] is: dose: 200.0 mg/kg/injection, schedule: Q01DX009 (ip), vehicle: saline.
[5] abbreviates: dose: 100.0 mg/kg/injection, schedule: Q01DX005 (ip), vehicle: saline with Tween-80.
[6] abbreviates: dose: 200.0 mg/kg/injection, schedule: Q01DX009 (ip), vehicle: Klucel (hydroxypropylcellulose) (HPC).
[7] abbreviates: dose: 50.0 mg/kg/injection, schedule: Q01DX005 (ip), vehicle: saline.
[8] abbreviates: dose: 100.0 mg/kg/injection, schedule: Q01DX005 (ip), vehicle: saline.
[9] abbreviates: dose: 200.0 mg/kg/injection, schedule: Q01DX005 (ip), vehicle: saline.
Where [10] appears, read: dose: 50.0 mg/kg/injection, schedule: Q01DX009 (ip), vehicle: water.

SMILES strings stand for the structures. The list is a part of this screen's results and no random one: it gathers tests that were run many times, whatever their T/C, doses with no T/C, and many T/C values between a quarter and a half above the control. Other doses and runs of a compound stand elsewhere. T/C gives the treated animals as a percentage of the vehicle group. Some doses have a count of surviving animals in place of a T/C: the source files T/C as zero there, which appears to mark a toxic dose or a test without result, not a measured value. Some survivor counts are full or nearly so, which does not show that the dose was tolerated: the source hardly ever lists a survival T/C far under the control, and the zero likely stands for such cases as well. Counts of survivors are from the toxicity check (mostly the fifth day) where no day follows; animals may have died later. Schedules are NCI's codes, read here as Q, the interval in days (D) or hours (H), X, the number of doses. Some doses were run more than once; their values stand side by side, smallest first. Where survival is the endpoint, this PubChem deposit counts one and a half times the control or more as active, and values a quarter to a half above the control carry no call in these data; other NCI protocols may use other cut-offs. Some T/C values carry the count of animals alive at the toxicity check (mostly the fifth day); where none is given, no animal had died by that day. Additions like (4×) count equal records among those shown.

`Cc1nc(N)nc(N)c1N1CCN(c2ccc(C(=O)NC(C(=O)O)C(=O)O)cc2)CC1`: under “dose: 1.87 mg/kg/injection, schedule: Q01DX005 (ip), vehicle: Klucel + Tween-80”, the T/C is 145 % of control. The survivor count was 6 of 6 (dose: 7.5 mg/kg/injection, schedule: Q01DX005 (ip), vehicle: Klucel + Tween-80); 6 of 6 (dose: 15.0 mg/kg/injection, schedule: Q01DX005 (ip), vehicle: Klucel + Tween-80); 6 of 6 (dose: 30.0 mg/kg/injection, schedule: Q01DX005 (ip), vehicle: Klucel + Tween-80); 6 of 6 (dose: 60.0 mg/kg/injection, schedule: Q01DX005 (ip), vehicle: Klucel + Tween-80); 1 of 6 (dose: 120.0 mg/kg/injection, schedule: Q01DX005 (ip), vehicle: Klucel + Tween-80); 5 of 6 (dose: 240.0 mg/kg/injection, schedule: Q01DX005 (ip), vehicle: Klucel + Tween-80).
For `O=C(O)CCC(=O)c1ccc2ccc3cccc4ccc1c2c34`, the survivor count is 0 of 6 under setting [1] and 0 of 6 (dose: 400.0 mg/kg/injection, schedule: Q01DX009 (ip), vehicle: saline with Tween-80).
Turning to `CCCC(CCC)(C(=O)Nc1ccc2nc(C)cc(N)c2c1)C(=O)Nc1ccc2nc(C)cc(N)c2c1`, the survivor count under setting [2] is listed as 2 of 5.
On the same count and under the same terms, next, `O=C1c2cccc3cccc(c23)C(=O)N1CCc1ccccn1`: 4 of 6.
In the case of `NC(=S)Nc1cccc(C(F)(F)F)c1`, for the setting “dose: 400.0 mg/kg/injection, schedule: Q01DX009 (ip), vehicle: other”, the survivor count is 0 of 6.
With `O=c1[nH]c2cc([N+](=O)[O-])ccc2o1`, where the note is “dose: 400.0 mg/kg/injection, schedule: Q01DX009 (ip), vehicle: Klucel (hydroxypropylcellulose) (HPC)”, the survivor count is given as 1 of 6.
As to `CN=C(N)N/N=C(\c1ccccc1)c1ccc(Cl)cc1`, the T/C (dose: 25.0 mg/kg/injection, schedule: Q04DX002 (ip), vehicle: saline with Tween-80) was 143 % of control. Besides, the survivor count is 4 of 6 (dose: 50.0 mg/kg/injection, schedule: Q04DX002 (ip), vehicle: saline with Tween-80) and 0 of 6 (dose: 100.0 mg/kg/injection, schedule: Q04DX002 (ip), vehicle: saline with Tween-80).
Take `NNc1c(C(N)=O)c2c(N)ncnc2n1C1OC(CO)C(O)C1O` (configuration not stated): the survivor count runs as follows: (dose: 50.0 mg/kg/injection, schedule: Q01DX005 (ip), vehicle: Klucel (hydroxypropylcellulose) (HPC)) 6 of 6; (dose: 100.0 mg/kg/injection, schedule: Q01DX005 (ip), vehicle: Klucel (hydroxypropylcellulose) (HPC)) 6 of 6; (dose: 200.0 mg/kg/injection, schedule: Q01DX005 (ip), vehicle: Klucel (hydroxypropylcellulose) (HPC)) 0 of 6; (dose: 200.0 mg/kg/injection, schedule: Q04DX003 (ip), vehicle: Klucel (hydroxypropylcellulose) (HPC)) 4 of 6; (dose: 400.0 mg/kg/injection, schedule: Q04DX003 (ip), vehicle: Klucel (hydroxypropylcellulose) (HPC)) 0 of 6; (dose: 400.0 mg/kg/injection, schedule: Q04DX003 (ip), vehicle: water) 4 of 6. Further, the T/C (dose: 50.0 mg/kg/injection, schedule: Q04DX003 (ip), vehicle: water) is 127 % of control.
As for `CCCCCCCCCCCCC[N+]1([O-])CCCCC1`, the survivor count by setting is: under setting [3], 3 of 6; under setting [4], 0 of 6.
For `C[C@]12CC[C@H](O)C[C@@H]1CC[C@@H]1[C@@H]2CC[C@]2(C)c3nc4ccccc4c(C(=O)O)c3C[C@@H]12`, the survivor count under setting [5] was 6 of 6.
As for `CC1CCCCN1CCCNC(=O)Nc1ccc(Cc2ccc(NC(=O)NCCCN3CCCCC3C)cc2)cc1` (configuration not stated), the survivor count was 3 of 6 (dose: 3.12 mg/kg/injection, schedule: Q01DX009 (ip), vehicle: Klucel (hydroxypropylcellulose) (HPC)); 1 of 6 (dose: 6.25 mg/kg/injection, schedule: Q01DX009 (ip), vehicle: Klucel (hydroxypropylcellulose) (HPC)); 2 of 6 (dose: 12.5 mg/kg/injection, schedule: Q01DX009 (ip), vehicle: Klucel (hydroxypropylcellulose) (HPC)); 0 of 6 (dose: 25.0 mg/kg/injection, schedule: Q01DX009 (ip), vehicle: Klucel (hydroxypropylcellulose) (HPC)); 0 of 6 (dose: 50.0 mg/kg/injection, schedule: Q01DX009 (ip), vehicle: Klucel (hydroxypropylcellulose) (HPC)); 0 of 6 (dose: 100.0 mg/kg/injection, schedule: Q01DX009 (ip), vehicle: Klucel (hydroxypropylcellulose) (HPC)). Also, under setting [6], the survivor count is given as 0 of 6.
With `CCN(CC)CCSCCCN=c1c2ccc(Cl)cc2n(O)c2ccc(OC)nc12`, where the note is “dose: 200.0 mg/kg/injection, schedule: Q01DX009 (ip), vehicle: saline + alcohol”, the survivor count is 0 of 6.
`Cc1ccc(C)c(C(=O)/C=C/C(=O)O)c1`: the T/C reads like this: (dose: 25.0 mg/kg/injection, schedule: Q01DX005 (ip), vehicle: saline with Tween-80) 126 % of control; (dose: 50.0 mg/kg/injection, schedule: Q01DX005 (ip), vehicle: saline with Tween-80) 134 % of control; under setting [5], 125 and 140 % of control [4 of 5 alive]. Further, the survivor count under setting [5] was 0 of 6 and the survivor count under setting [2] is recorded as 0 of 5, 0 of 6, 2 of 6.
`COC(=O)C1=C(C(=O)OC)[C](C(=O)c2ccccc2)([Sn]([CH3])([CH3])[CH3])N=N1` (configuration not stated): the survivor count is reported as 0 of 6 (dose: 6.25 mg/kg/injection, schedule: Q01DX009 (ip), vehicle: saline); 0 of 6 (dose: 12.5 mg/kg/injection, schedule: Q01DX009 (ip), vehicle: saline); 0 of 6 (dose: 25.0 mg/kg/injection, schedule: Q01DX009 (ip), vehicle: saline); 0 of 6 (dose: 50.0 mg/kg/injection, schedule: Q01DX009 (ip), vehicle: saline); 0 of 6 under setting [3]; 0 of 6 under setting [4].
For the molecule `CN=C(NCCSCc1ccc2ccccc2n1)NCc1ccccc1`, the survivor count by setting is: under setting [7], 3 of 5; under setting [8], 0 of 5; under setting [9], 0 of 5.
Regarding `CC1(C)C=C(C(=O)ON2C(=O)CCC2=O)C(C)(C)N1O`, the survivor count under setting [6] is reported as 2 of 6.
Turning to `CN1CCC/C1=N\C(=Nc1ccccc1)N1CCCC1`, the survivor count is recorded as 0 of 6 under setting [7], 0 of 6 under setting [8] and 0 of 6 under setting [9].
As for `COc1ccc(C(=O)c2no[n+]([O-])c2C(=O)c2ccc(OC)cc2)cc1`, the T/C under setting [1] was 126 % of control.
Turning to `CC1CCC23COC(=O)C2=CCCC3C12CC(c1ccoc1)OC2=O` (configuration not stated), the survivor count (dose: 0.25 mg/kg/injection, schedule: Q01DX009 (ip), vehicle: Klucel (hydroxypropylcellulose) (HPC)) is reported as 6 of 6.
For `CNc1n[n+](-c2ccccc2)no1`, the T/C (dose: 3.13 mg/kg/injection, schedule: Q01DX009 (ip), vehicle: water) was 102, 104, 106, 107, 109, 110, 111 (2×), 112, 118, 124 % of control; the T/C (dose: 6.25 mg/kg/injection, schedule: Q01DX009 (ip), vehicle: water) is 104, 108, 111, 112 (2×), 116, 119, 121, 124, 128, 134, 137 % of control; the T/C (dose: 12.5 mg/kg/injection, schedule: Q01DX009 (ip), vehicle: water) was 118, 122, 127, 129, 130, 133, 135 (2×), 136, 137, 139, 153 % of control; the T/C (dose: 25.0 mg/kg/injection, schedule: Q01DX009 (ip), vehicle: water) is 120, 148, 152, 153, 154, 155, 168, 170, 171 [5 of 6 alive], 172, 173, 184 % of control [5 of 6 alive]; the T/C under setting [10] was 89, 91, 99 (2×), 101, 111, 184 % of control. For the same molecule, the survivor count under setting [10] was 5 of 6 and 6 of 6.
On to `CCNCc1c(C)[nH]c2ccccc2c1=O`, for which the survivor count reads like this: (dose: 50.0 mg/kg/injection, schedule: Q01DX009 (ip), vehicle: saline with Tween-80) 6 of 6; under setting [1], 0 of 6.
